Reference: patent US4703107A (priority 1983, dated 1987)

Test: general procedure: peptide synthesis; dicyclohexylcarbodiimide / 1-hydroxybenzotriazole
Conditions: conjugation step
For PHA-L-Ala-L-Ala-L-Pro-L-Val-AEC, the conjugation yield was 80%.
In the case of PHA-Gly-L-Pro-L-Ala-Gly-L-Pro-AEC, the conjugation yield is reported as 60%.
For PHA-L-Pro-L-Ala-Gly-L-Pro-AEC, the conjugation yield was 60%.
PEPTIDE1{[GlcA].A.A.P.A.[AEC]}$$$$V2.0 gave a conjugation yield of 80%.

HELM strings list residues between dots; [ac] is acetyl, [am] amide, other brackets name non-standard units.
